{"source": "PubChem BioAssay AID1224830 (NIAID, 2016)", "aim": "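Genes whose knock-down alters the TNF-alpha reporter response to LPS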 (primary screen)", "cells": "human THP-1 monocytic leukaemia cells, TNF dual-luciferase reporter clone, PMA-differentiated to macrophage-like cells", "knock-down reagent": "siRNA pool against human genes, 50 nM", "timing": "LPS for 4 h, given about 3 days after siRNA transfection", "challenge": "bacterial LPS (TLR4 ligand), 10 ng/ml", "measurement": "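TNF firefly reporter luminescence divided by renilla, normalised to the plate median, then turned into a robust z-score for each replicate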", "reading the numbers": "TNF reporter robust z-score: higher = stronger TNF reporter response to LPS", "hit rule": "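a well is active when its z-score exceeds 2.8 or falls below -1.5; control wells carry no call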", "note": "Here is an unselected part of about 18,000 reagents tested. Of all reagents, about 2,900 (16%) got an active call. 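Calls are made per well; low scores hint the gene aids the LPS response, high scores that it dampens it.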 Repeated entries: four replicate wells of each siRNA pool."}
{"Target gene": "RIBC2 (RIB43A domain with coiled-coils 2)", "TNF reporter robust z-score": -0.11, "outcome": "inactive"}
{"Target gene": "RIBC2 (RIB43A domain with coiled-coils 2)", "TNF reporter robust z-score": 0.98, "outcome": "inactive"}
{"Target gene": "RIBC2 (RIB43A domain with coiled-coils 2)", "TNF reporter robust z-score": -0.09, "outcome": "inactive"}
{"Target gene": "RIBC2 (RIB43A domain with coiled-coils 2)", "TNF reporter robust z-score": 0.88, "outcome": "inactive"}
{"Target gene": "TPST2 (tyrosylprotein sulfotransferase 2)", "TNF reporter robust z-score": -0.29, "outcome": "inactive"}
{"Target gene": "TPST2 (tyrosylprotein sulfotransferase 2)", "TNF reporter robust z-score": -0.15, "outcome": "inactive"}
{"Target gene": "TPST2 (tyrosylprotein sulfotransferase 2)", "TNF reporter robust z-score": 0.62, "outcome": "inactive"}
{"Target gene": "TPST2 (tyrosylprotein sulfotransferase 2)", "TNF reporter robust z-score": 1.07, "outcome": "inactive"}
{"Target gene": "FBN3 (fibrillin 3)", "TNF reporter robust z-score": 0.37, "outcome": "inactive"}
{"Target gene": "FBN3 (fibrillin 3)", "TNF reporter robust z-score": -0.46, "outcome": "inactive"}
{"Target gene": "FBN3 (fibrillin 3)", "TNF reporter robust z-score": 0.74, "outcome": "inactive"}
{"Target gene": "FBN3 (fibrillin 3)", "TNF reporter robust z-score": 0.17, "outcome": "inactive"}
{"Target gene": "AXL (AXL receptor tyrosine kinase)", "TNF reporter robust z-score": -0.51, "outcome": "inactive"}
{"Target gene": "AXL (AXL receptor tyrosine kinase)", "TNF reporter robust z-score": 1.44, "outcome": "inactive"}
{"Target gene": "AXL (AXL receptor tyrosine kinase)", "TNF reporter robust z-score": 0.72, "outcome": "inactive"}
{"Target gene": "AXL (AXL receptor tyrosine kinase)", "TNF reporter robust z-score": 0.15, "outcome": "inactive"}
{"Target gene": "ABCA2 (ATP binding cassette subfamily A member 2)", "TNF reporter robust z-score": -0.49, "outcome": "inactive"}
{"Target gene": "ABCA2 (ATP binding cassette subfamily A member 2)", "TNF reporter robust z-score": -0.3, "outcome": "inactive"}
{"Target gene": "ABCA2 (ATP binding cassette subfamily A member 2)", "TNF reporter robust z-score": -0.91, "outcome": "inactive"}
{"Target gene": "ABCA2 (ATP binding cassette subfamily A member 2)", "TNF reporter robust z-score": -0.76, "outcome": "inactive"}
{"Target gene": "DNAI3 (dynein axonemal intermediate chain 3)", "TNF reporter robust z-score": -0.78, "outcome": "inactive"}
{"Target gene": "DNAI3 (dynein axonemal intermediate chain 3)", "TNF reporter robust z-score": -0.23, "outcome": "inactive"}
{"Target gene": "DNAI3 (dynein axonemal intermediate chain 3)", "TNF reporter robust z-score": -0.29, "outcome": "inactive"}
{"Target gene": "DNAI3 (dynein axonemal intermediate chain 3)", "TNF reporter robust z-score": 0.17, "outcome": "inactive"}
{"Target gene": "SNX5 (sorting nexin 5)", "TNF reporter robust z-score": -0.17, "outcome": "inactive"}
{"Target gene": "SNX5 (sorting nexin 5)", "TNF reporter robust z-score": 0.03, "outcome": "inactive"}
{"Target gene": "SNX5 (sorting nexin 5)", "TNF reporter robust z-score": -0.89, "outcome": "inactive"}

Targets above whose target name starts with A or a:
{"Target gene": "AXL (AXL receptor tyrosine kinase)", "TNF reporter robust z-score": -0.51, "outcome": "inactive"}
{"Target gene": "AXL (AXL receptor tyrosine kinase)", "TNF reporter robust z-score": 1.44, "outcome": "inactive"}
{"Target gene": "AXL (AXL receptor tyrosine kinase)", "TNF reporter robust z-score": 0.72, "outcome": "inactive"}
{"Target gene": "AXL (AXL receptor tyrosine kinase)", "TNF reporter robust z-score": 0.15, "outcome": "inactive"}
{"Target gene": "ABCA2 (ATP binding cassette subfamily A member 2)", "TNF reporter robust z-score": -0.49, "outcome": "inactive"}
{"Target gene": "ABCA2 (ATP binding cassette subfamily A member 2)", "TNF reporter robust z-score": -0.3, "outcome": "inactive"}
{"Target gene": "ABCA2 (ATP binding cassette subfamily A member 2)", "TNF reporter robust z-score": -0.91, "outcome": "inactive"}
{"Target gene": "ABCA2 (ATP binding cassette subfamily A member 2)", "TNF reporter robust z-score": -0.76, "outcome": "inactive"}

Additional results follow:
{"Target gene": "GALM (galactose mutarotase)", "TNF reporter robust z-score": -2.14, "outcome": "active"}
{"Target gene": "GALM (galactose mutarotase)", "TNF reporter robust z-score": -0.72, "outcome": "inactive"}
{"Target gene": "GALM (galactose mutarotase)", "TNF reporter robust z-score": 0.33, "outcome": "inactive"}
{"Target gene": "GALM (galactose mutarotase)", "TNF reporter robust z-score": 0.14, "outcome": "inactive"}
{"Target gene": "XPO1 (exportin 1)", "TNF reporter robust z-score": 3.06, "outcome": "active"}
{"Target gene": "XPO1 (exportin 1)", "TNF reporter robust z-score": 3.11, "outcome": "active"}
{"Target gene": "XPO1 (exportin 1)", "TNF reporter robust z-score": 4.58, "outcome": "active"}
{"Target gene": "XPO1 (exportin 1)", "TNF reporter robust z-score": 3.78, "outcome": "active"}
{"Target gene": "ART1 (ADP-ribosyltransferase 1)", "TNF reporter robust z-score": 2.62, "outcome": "inactive"}
{"Target gene": "ART1 (ADP-ribosyltransferase 1)", "TNF reporter robust z-score": 3.01, "outcome": "active"}
{"Target gene": "ART1 (ADP-ribosyltransferase 1)", "TNF reporter robust z-score": 2.88, "outcome": "active"}
{"Target gene": "ART1 (ADP-ribosyltransferase 1)", "TNF reporter robust z-score": 2.17, "outcome": "inactive"}
{"Target gene": "SMDT1 (single-pass membrane protein with aspartate rich tail 1)", "TNF reporter robust z-score": -1.74, "outcome": "active"}
{"Target gene": "SMDT1 (single-pass membrane protein with aspartate rich tail 1)", "TNF reporter robust z-score": -0.9, "outcome": "inactive"}
{"Target gene": "SMDT1 (single-pass membrane protein with aspartate rich tail 1)", "TNF reporter robust z-score": -1.39, "outcome": "inactive"}
{"Target gene": "SMDT1 (single-pass membrane protein with aspartate rich tail 1)", "TNF reporter robust z-score": -0.74, "outcome": "inactive"}
{"Target gene": "MYH14 (myosin heavy chain 14)", "TNF reporter robust z-score": -0.46, "outcome": "inactive"}
{"Target gene": "MYH14 (myosin heavy chain 14)", "TNF reporter robust z-score": -0.86, "outcome": "inactive"}
{"Target gene": "MYH14 (myosin heavy chain 14)", "TNF reporter robust z-score": -0.38, "outcome": "inactive"}
{"Target gene": "SKA2 (spindle and kinetochore associated complex subunit 2)", "TNF reporter robust z-score": 0.82, "outcome": "inactive"}
{"Target gene": "SKA2 (spindle and kinetochore associated complex subunit 2)", "TNF reporter robust z-score": 1.32, "outcome": "inactive"}
{"Target gene": "SKA2 (spindle and kinetochore associated complex subunit 2)", "TNF reporter robust z-score": 1.41, "outcome": "inactive"}
{"Target gene": "SKA2 (spindle and kinetochore associated complex subunit 2)", "TNF reporter robust z-score": 1.11, "outcome": "inactive"}
